Read-outs that look alike come from different tables or passages of the source. These are yes or no findings as the source states them, for the method shown. Binding seen in cells or lysates may run through a third protein. A yes stands for co-enrichment or nearness to the bait. Other partners may have been found.
Legend:
Assay in all cases: affinity purification with mass spectrometry
[1] = target: glucocorticoid receptor (human (endogenous in primary human cells, human cell lines and human PDX tumours)) (UniProt P04150)
[2] = target: glucocorticoid receptor (human (endogenous in primary human cells, human cell lines and human PDX tumours)) (UniProt P04150); remark: listed apart in the source
[3] = target: glucocorticoid receptor (human (endogenous in primary human cells, human cell lines and human PDX tumours)) (UniProt P04150); remark: listed apart in the source
[4] = target: glucocorticoid receptor (human (endogenous in primary human cells, human cell lines and human PDX tumours)) (UniProt P04150); remark: listed apart in the source
[5] = target: glucocorticoid receptor (human (endogenous in primary human cells, human cell lines and human PDX tumours)) (UniProt P04150); remark: listed apart in the source
[6] = target: glucocorticoid receptor (human (endogenous in primary human cells, human cell lines and human PDX tumours)) (UniProt P04150); remark: listed apart in the source

By UniProt entry, the sequences of proteins in these tests, tags left out.
UniProt P04150: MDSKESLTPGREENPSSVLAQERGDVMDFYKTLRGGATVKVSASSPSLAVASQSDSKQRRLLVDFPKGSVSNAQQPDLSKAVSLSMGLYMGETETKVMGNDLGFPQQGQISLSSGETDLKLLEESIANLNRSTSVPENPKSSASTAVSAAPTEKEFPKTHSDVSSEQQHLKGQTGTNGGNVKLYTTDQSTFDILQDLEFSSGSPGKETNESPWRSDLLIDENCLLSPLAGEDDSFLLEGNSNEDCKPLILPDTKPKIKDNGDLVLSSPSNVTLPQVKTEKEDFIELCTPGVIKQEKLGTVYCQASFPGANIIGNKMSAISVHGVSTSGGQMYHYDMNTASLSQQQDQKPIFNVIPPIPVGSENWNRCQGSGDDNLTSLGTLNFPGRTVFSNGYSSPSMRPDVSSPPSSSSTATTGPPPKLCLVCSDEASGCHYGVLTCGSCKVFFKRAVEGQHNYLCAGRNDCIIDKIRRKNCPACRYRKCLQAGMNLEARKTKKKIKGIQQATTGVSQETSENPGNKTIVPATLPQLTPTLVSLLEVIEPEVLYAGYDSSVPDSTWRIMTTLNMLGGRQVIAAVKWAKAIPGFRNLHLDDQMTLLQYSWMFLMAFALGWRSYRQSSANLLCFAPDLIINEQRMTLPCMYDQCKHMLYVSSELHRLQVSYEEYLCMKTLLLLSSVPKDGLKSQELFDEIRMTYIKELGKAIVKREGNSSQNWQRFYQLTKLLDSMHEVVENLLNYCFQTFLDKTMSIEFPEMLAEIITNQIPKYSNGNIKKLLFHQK

Row | Binder | binding [1] | binding [2] | binding [3] | binding [4] | binding [5] | binding [6]
1 | GRHL1 (protein, UniProt Q9NZI5 1-618) MTQEYDNKRPVLVLQNEALYPQRRSYTSEDEAWKSFLENPLTAATKAMMSINGDEDSAAALGLLYDYYKVPRERRSSTAKPEVEHPEPDHSKRNSIPIVTEQPLISAGENRVQVLKNVPFNIVLPHGNQLGIDKRGHLTAPDTTVTVSIATMPTHSIKTETQPHGFAVGIPPAVYHPEPTERVVVFDRNLNTDQFSSGAQAPNAQRRTPDSTFSETFKEGVQEVFFPSDLSLRMPGMNSEDYVFDSVSGNNFEYTLEASKSLRQKPGDSTMTYLNKGQFYPITLKEVSSSEGIHHPISKVRSVIMVVFAEDKSREDQLRHWKYWHSRQHTAKQRCIDIADYKESFNTISNIEEIAYNAISFTWDINDEAKVFISVNCLSTDFSSQKGVKGLPLNIQVDTYSYNNRSNKPVHRAYCQIKVFCDKGAERKIRDEERKQSKRKVSDVKVPLLPSHKRMDITVFKPFIDLDTQPVLFIPDVHFANLQRGTHVLPIASEELEGEGSVLKRGPYGTEDDFAVPPSTKLARIEEPKRVLLYVRKESEEVFDALMLKTPSLKGLMEAISDKYDVPHDKIGKIFKKCKKGILVNMDDNIVKHYSNEDTFQLQIEEAGGSYKLTLTEI | binds | binds | binds | binds | – | –
2 | ZEB1 (protein, UniProt P37275 1-1124) MADGPRCKRRKQANPRRNNVTNYNTVVETNSDSDDEDKLHIVEEESVTDAADCEGVPEDDLPTDQTVLPGRSSEREGNAKNCWEDDRKEGQEILGPEAQADEAGCTVKDDECESDAENEQNHDPNVEEFLQQQDTAVIFPEAPEEDQRQGTPEASGHDENGTPDAFSQLLTCPYCDRGYKRFTSLKEHIKYRHEKNEDNFSCSLCSYTFAYRTQLERHMTSHKSGRDQRHVTQSGCNRKFKCTECGKAFKYKHHLKEHLRIHSGEKPYECPNCKKRFSHSGSYSSHISSKKCISLIPVNGRPRTGLKTSQCSSPSLSASPGSPTRPQIRQKIENKPLQEQLSVNQIKTEPVDYEFKPIVVASGINCSTPLQNGVFTGGGPLQATSSPQGMVQAVVLPTVGLVSPISINLSDIQNVLKVAVDGNVIRQVLENNQANLASKEQETINASPIQQGGHSVISAISLPLVDQDGTTKIIINYSLEQPSQLQVVPQNLKKENPVATNSCKSEKLPEDLTVKSEKDKSFEGGVNDSTCLLCDDCPGDINALPELKHYDLKQPTQPPPLPAAEAEKPESSVSSATGDGNLSPSQPPLKNLLSLLKAYYALNAQPSAEELSKIADSVNLPLDVVKKWFEKMQAGQISVQSSEPSSPEPGKVNIPAKNNDQPQSANANEPQDSTVNLQSPLKMTNSPVLPVGSTTNGSRSSTPSPSPLNLSSSRNTQGYLYTAEGAQEEPQVEPLDLSLPKQQGELLERSTITSVYQNSVYSVQEEPLNLSCAKKEPQKDSCVTDSEPVVNVIPPSANPINIAIPTVTAQLPTIVAIADQNSVPCLRALAANKQTILIPQVAYTYSTTVSPAVQEPPLKVIQPNGNQDERQDTSSEGVSNVEDQNDSDSTPPKKKMRKTENGMYACDLCDKIFQKSSSLLRHKYEHTGKRPHECGICKKAFKHKHHLIEHMRLHSGEKPYQCDKCGKRFSHSGSYSQHMNHRYSYCKREAEERDSTEQEEAGPEILSNEHVGARASPSQGDSDERESLTREEDEDSEKEEEEEDKEMEELQEEKECEKPQGDEEEEEEEEEVEEEEVEEAENEGEEAKTEGLMKDDRAESQASSLGQKVGESSEQVSEEKTNEA | binds | – | – | – | binds | –
3 | ZEB2 (protein, UniProt O60315 1-1214) MKQPIMADGPRCKRRKQANPRRKNVVNYDNVVDTGSETDEEDKLHIAEDDGIANPLDQETSPASVPNHESSPHVSQALLPREEEEDEIREGGVEHPWHNNEILQASVDGPEEMKEDYDTMGPEATIQTAINNGTVKNANCTSDFEEYFAKRKLEERDGHAVSIEEYLQRSDTAIIYPEAPEELSRLGTPEANGQEENDLPPGTPDAFAQLLTCPYCDRGYKRLTSLKEHIKYRHEKNEENFSCPLCSYTFAYRTQLERHMVTHKPGTDQHQMLTQGAGNRKFKCTECGKAFKYKHHLKEHLRIHSGEKPYECPNCKKRFSHSGSYSSHISSKKCIGLISVNGRMRNNIKTGSSPNSVSSSPTNSAITQLRNKLENGKPLSMSEQTGLLKIKTEPLDFNDYKVLMATHGFSGTSPFMNGGLGATSPLGVHPSAQSPMQHLGVGMEAPLLGFPTMNSNLSEVQKVLQIVDNTVSRQKMDCKAEEISKLKGYHMKDPCSQPEEQGVTSPNIPPVGLPVVSHNGATKSIIDYTLEKVNEAKACLQSLTTDSRRQISNIKKEKLRTLIDLVTDDKMIENHNISTPFSCQFCKESFPGPIPLHQHERYLCKMNEEIKAVLQPHENIVPNKAGVFVDNKALLLSSVLSEKGMTSPINPYKDHMSVLKAYYAMNMEPNSDELLKISIAVGLPQEFVKEWFEQRKVYQYSNSRSPSLERSSKPLAPNSNPPTKDSLLPRSPVKPMDSITSPSIAELHNSVTNCDPPLRLTKPSHFTNIKPVEKLDHSRSNTPSPLNLSSTSSKNSHSSSYTPNSFSSEELQAEPLDLSLPKQMKEPKSIIATKNKTKASSISLDHNSVSSSSENSDEPLNLTFIKKEFSNSNNLDNKSTNPVFSMNPFSAKPLYTALPPQSAFPPATFMPPVQTSIPGLRPYPGLDQMSFLPHMAYTYPTGAATFADMQQRRKYQRKQGFQGELLDGAQDYMSGLDDMTDSDSCLSRKKIKKTESGMYACDLCDKTFQKSSSLLRHKYEHTGKRPHQCQICKKAFKHKHHLIEHSRLHSGEKPYQCDKCGKRFSHSGSYSQHMNHRYSYCKREAEEREAAEREAREKGHLEPTELLMNRAYLQSITPQGYSDSEERESMPRDGESEKEHEKEGEDGYGKLGRQDGDEEFEEEEEESENKSMDTDPETIRDEEETGDHSMDDSSEDGKMETKSDHEEDNMEDGM | binds | – | – | – | binds | –
4 | SATB1 (protein, UniProt Q01826 1-763) MDHLNEATQGKEHSEMSNNVSDPKGPPAKIARLEQNGSPLGRGRLGSTGAKMQGVPLKHSGHLMKTNLRKGTMLPVFCVVEHYENAIEYDCKEEHAEFVLVRKDMLFNQLIEMALLSLGYSHSSAAQAKGLIQVGKWNPVPLSYVTDAPDATVADMLQDVYHVVTLKIQLHSCPKLEDLPPEQWSHTTVRNALKDLLKDMNQSSLAKECPLSQSMISSIVNSTYYANVSAAKCQEFGRWYKHFKKTKDMMVEMDSLSELSQQGANHVNFGQQPVPGNTAEQPPSPAQLSHGSQPSVRTPLPNLHPGLVSTPISPQLVNQQLVMAQLLNQQYAVNRLLAQQSLNQQYLNHPPPVSRSMNKPLEQQVSTNTEVSSEIYQWVRDELKRAGISQAVFARVAFNRTQGLLSEILRKEEDPKTASQSLLVNLRAMQNFLQLPEAERDRIYQDERERSLNAASAMGPAPLISTPPSRPPQVKTATIATERNGKPENNTMNINASIYDEIQQEMKRAKVSQALFAKVAATKSQGWLCELLRWKEDPSPENRTLWENLSMIRRFLSLPQPERDAIYEQESNAVHHHGDRPPHIIHVPAEQIQQQQQQQQQQQQQQQAPPPPQPQQQPQTGPRLPPRQPTVASPAESDEENRQKTRPRTKISVEALGILQSFIQDVGLYPDEEAIQTLSAQLDLPKYTIIKFFQNQRYYLKHHGKLKDNSGLEVDVAEYKEEELLKDLEESVQDKNTNTLFSVKLEEELSVEGNTDINTDLKD | binds | – | – | – | – | binds
5 | TRPS1 (protein, UniProt Q9UHF7 1-1281) MVRKKNPPLRNVASEGEGQILEPIGTESKVSGKNKEFSADQMSENTDQSDAAELNHKEEHSLHVQDPSSSSKKDLKSAVLSEKAGFNYESPSKGGNFPSFPHDEVTDRNMLAFSSPAAGGVCEPLKSPQRAEADDPQDMACTPSGDSLETKEDQKMSPKATEETGQAQSGQANCQGLSPVSVASKNPQVPSDGGVRLNKSKTDLLVNDNPDPAPLSPELQDFKCNICGYGYYGNDPTDLIKHFRKYHLGLHNRTRQDAELDSKILALHNMVQFSHSKDFQKVNRSVFSGVLQDINSSRPVLLNGTYDVQVTSGGTFIGIGRKTPDCQGNTKYFRCKFCNFTYMGNSSTELEQHFLQTHPNKIKASLPSSEVAKPSEKNSNKSIPALQSSDSGDLGKWQDKITVKAGDDTPVGYSVPIKPLDSSRQNGTEATSYYWCKFCSFSCESSSSLKLLEHYGKQHGAVQSGGLNPELNDKLSRGSVINQNDLAKSSEGETMTKTDKSSSGAKKKDFSSKGAEDNMVTSYNCQFCDFRYSKSHGPDVIVVGPLLRHYQQLHNIHKCTIKHCPFCPRGLCSPEKHLGEITYPFACRKSNCSHCALLLLHLSPGAAGSSRVKHQCHQCSFTTPDVDVLLFHYESVHESQASDVKQEANHLQGSDGQQSVKESKEHSCTKCDFITQVEEEISRHYRRAHSCYKCRQCSFTAADTQSLLEHFNTVHCQEQDITTANGEEDGHAISTIKEEPKIDFRVYNLLTPDSKMGEPVSESVVKREKLEEKDGLKEKVWTESSSDDLRNVTWRGADILRGSPSYTQASLGLLTPVSGTQEQTKTLRDSPNVEAAHLARPIYGLAVETKGFLQGAPAGGEKSGALPQQYPASGENKSKDESQSLLRRRRGSGVFCANCLTTKTSLWRKNANGGYVCNACGLYQKLHSTPRPLNIIKQNNGEQIIRRRTRKRLNPEALQAEQLNKQQRGSNEEQVNGSPLERRSEDHLTESHQREIPLPSLSKYEAQGSLTKSHSAQQPVLVSQTLDIHKRMQPLHIQIKSPQESTGDPGNSSSVSEGKGSSERGSPIEKYMRPAKHPNYSPPGSPIEKYQYPLFGLPFVHNDFQSEADWLRFWSKYKLSVPGNPHYLSHVPGLPNPCQNYVPYPTFNLPPHFSAVGSDNDIPLDLAIKHSRPGPTANGASKEKTKAPPNVKNEGPLNVVKTEKVDRSTQDELSTKCVHCGIVFLDEVMYALHMSCHGDSGPFQCSICQHLCTDKYDFTTHIQRGLHRNNAQVEKNGKPKE | binds | – | – | – | – | –

— doi:10.1101/2025.08.07.669166
